Data: patent US11311512B2, “Lymph directing prodrugs” (priority 2014, dated 2022)

Conditions: male, Sprague-Dawley, rat, in vivo
Method: Lipid formulations containing the compound of interest were then administered to the animals, the lymph collected and drug concentrations in the lymph subsequently quantified.
Lipid-based formulations of the compounds of the invention or control compounds were prepared as previously described (Trevaskis, N. L. et al., Pharmaceutical Research, 2005, 22(11), 1863-1870). Briefly, approximately 2 mg of the compound (1 mg in the case of Compound 35 and Compound 1), 40 mg oleic acid and 25 mg Tween 80 were mixed in a glass vial until equilibrated (gentle heat (below 50° C.) may be applied for a short period).
[…] This was to eliminate the potential for the relatively high and variable levels of endogenous testosterone in male rats interfering with the quantification of exogenously dosed testosterone. Rats (240-320 g) were maintained on a standard diet and fasted overnight with free access to water prior to experiments. […] The collection tubes were changed hourly and lymph flow was measured gravimetrically. […]
Drug concentration in lymph is expressed as total drug and includes free drug and drug associated with different glycerides. […]

Increase fold (compared with parent drug group): 1.0 fold
Transport of total drug derivatives in lymph (% of dose): 0.17 % of dose
SMILES: CC(C)c1c(C(=O)Nc2ccccc2)c(-c2ccccc2)c(-c2ccc(F)cc2)n1CC[C@@H](O)C[C@@H](O)CC(=O)O [ATV, atorvastatin, reference compound]
